Source: publication PMC7819943, “Rice protein-binding microarrays: a tool to detect cis-acting elements near promoter regions in rice”
Some of the results follow.

By UniProt entry, the sequences of proteins in these tests, tags left out.
UniProt Q0JBA9, entry or part of it: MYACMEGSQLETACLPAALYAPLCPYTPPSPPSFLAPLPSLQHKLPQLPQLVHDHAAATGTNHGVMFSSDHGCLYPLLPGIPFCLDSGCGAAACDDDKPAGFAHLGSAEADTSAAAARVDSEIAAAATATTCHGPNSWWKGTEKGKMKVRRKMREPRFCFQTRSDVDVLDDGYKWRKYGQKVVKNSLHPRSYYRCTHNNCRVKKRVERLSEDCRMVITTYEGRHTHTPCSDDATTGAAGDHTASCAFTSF

These sequences were tested against OsWRKY34 (Oryza sativa, UniProt Q0JBA9 1-250) (assay: protein-binding microarray (RPBM); PBS, 2% BSA, 51.3 ng/ul salmon testes DNA, 50 uM zinc acetate, 200 nM TF, 25 C, 1 h; high values mean tight binding). Settings: protein: recombinant; tags: N-terminal polyhistidine and DsRed monomer fusion (pET32a); label: CyDye5-dUTP incorporated in the synthesized complementary strand; 3' TTTTT single-stranded linker to array surface; dsDNA, one strand shown.
Outline: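 Transcription factors, each fused N-terminally to a polyhistidine tag and DsRed, were expressed in E. coli BL21-CodonPlus and purified on Ni–NTA. A custom Agilent array was made double-stranded by primer extension with Cy5-dUTP and blocked with 2% BSA. It was incubated with 200 nM protein in PBS, 2% BSA, salmon testes DNA and 50 µM zinc acetate at 25 °C for 1 h, then washed. The binding signal is per-feature fluorescence intensity (arbitrary units) read on an Axon 4000B scanner.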
For “CCGCGCGCGGTCCACCTGGCTGATGCTCTTCCCGGCGTACCGGAGTCACCTAGTGCAG”, the binding signal was 8810 fluorescence intensity (a.u.). With “AGGGAAGAGTGGATTCGGAGTACTCCATGCATATCGGCGCCGGAGTCACCTAGTGCAG” the binding signal was 11500 fluorescence intensity (a.u.). “CCTCGTTTTGCGTATCTTTCCAATCTCCTCAATCCTCTTCCGGAGTCACCTAGTGCAG” was tested, and the binding signal was 8030 fluorescence intensity (a.u.). With “GTGCTATCCCTATACCTATTATCGTGGTAATTTTTTTTTGCGGAGTCACCTAGTGCAG” the binding signal was 10200 fluorescence intensity (a.u.). “ATATAAGGGATTTTGAGTTTTTGATTGCAACGTTTGACCACGGAGTCACCTAGTGCAG” was tested, and the binding signal was 8550 fluorescence intensity (a.u.). For “TATGTTCTTCAGGATACTTGCTGTTTGTCACACTGCAATTCGGAGTCACCTAGTGCAG”, the binding signal was 9110 fluorescence intensity (a.u.). For “CTCTTCACCATTCAACTCCTCCCATGCATATGTTTCACAACGGAGTCACCTAGTGCAG”, the binding signal was 8290 fluorescence intensity (a.u.). With “CACTTTATTTAATCTTAATATATTTATCTCATGGTTTTATCGGAGTCACCTAGTGCAG” the binding signal was 8810 fluorescence intensity (a.u.). “CTCTTTTTTTTTCTTCCACTACGCTCCAAAACTTCTCTCCCGGAGTCACCTAGTGCAG” was tested, and the binding signal was 8790 fluorescence intensity (a.u.). “AATGTTATTGTATTTTTCTACGAACGTAGTCAAACTTGAACGGAGTCACCTAGTGCAG” was tested, and the binding signal was 8760 fluorescence intensity (a.u.). With “CGCGGCGACGATACCCGCCATTTTCATCTCATTCTCACCACGGAGTCACCTAGTGCAG” the binding signal was 8200 fluorescence intensity (a.u.). With “CTTGGCTTTGTGTGTTGCGGCAGATTGGATTCTATTCTAACGGAGTCACCTAGTGCAG” the binding signal was 9160 fluorescence intensity (a.u.). “TCGGAAACGGCAGAGTTTGATTTGGATTGTTTTGTCTTTCCGGAGTCACCTAGTGCAG” was tested, and the binding signal was 10100 fluorescence intensity (a.u.). With “GGCAGCCATCACGTCGTCACCGCGTCATGTCATCACCTACCGGAGTCACCTAGTGCAG” the binding signal was 9560 fluorescence intensity (a.u.). For “TCCTCATCAGTCATCATAGTCTCATTTTTTCGCTTATACTCGGAGTCACCTAGTGCAG”, the binding signal was 11700 fluorescence intensity (a.u.). In the case of “ATCGTTCTCGGCGGCGATCACCTTAGTCAGCCTCTGCTTCCGGAGTCACCTAGTGCAG”, the binding signal is reported as 8060 fluorescence intensity (a.u.). In the case of “CTGATGACTCACCCTTTTTTGCGTATATTCTCTTTTCCCCCGGAGTCACCTAGTGCAG”, the binding signal is reported as 8960 fluorescence intensity (a.u.). In the case of “AAAACATGGTACAAATGCATACGCTCACACATGCACACTCCGGAGTCACCTAGTGCAG”, the binding signal is reported as 8300 fluorescence intensity (a.u.). In the case of “ATTTGCTCGACGTGCTATATATATAAGTGCCCATTTCTTTCGGAGTCACCTAGTGCAG”, the binding signal is reported as 8530 fluorescence intensity (a.u.). With “AAACCCCTGGCTGCTTCTCAGTGCTTCTTGCTGGCTTCATCGGAGTCACCTAGTGCAG” the binding signal was 9590 fluorescence intensity (a.u.). “GCACACGGAAAACGCCGTCCAGTCCAACCTCCCATTTTTCCGGAGTCACCTAGTGCAG” was tested, and the binding signal was 15600 fluorescence intensity (a.u.). For “CAATGTGTATGTATCTTCTTCGCAGCGAAACAAGTCGTCTCGGAGTCACCTAGTGCAG”, the binding signal was 8550 fluorescence intensity (a.u.). With “ATACTAATCTCGTGAAATTTCACGTTCTCGCTGTCACAAACGGAGTCACCTAGTGCAG” the binding signal was 12100 fluorescence intensity (a.u.). In the case of “ACCACCCATATCCGCTACCATCTTTCTTCTACTGCCTCTGCGGAGTCACCTAGTGCAG”, the binding signal is reported as 12500 fluorescence intensity (a.u.). For “CCTGATATATCTGTTTTCGACAGCCCATTACTGTTTCTTGCGGAGTCACCTAGTGCAG”, the binding signal was 9100 fluorescence intensity (a.u.). For “TGTTGAATTCTTGGGGTTGATGTGAATTGATTGAAGTCTCCGGAGTCACCTAGTGCAG”, the binding signal was 9590 fluorescence intensity (a.u.). In the case of “CCACGTCGATTCGTTGGTCATTGCAAACTCTATATATACTCGGAGTCACCTAGTGCAG”, the binding signal is reported as 8360 fluorescence intensity (a.u.). With “TTGGCGCGCGGTTGGTGGGGCGGTGGTGGTGGTGGTGCCTCGGAGTCACCTAGTGCAG” the binding signal was 17400 fluorescence intensity (a.u.). For “TTGGTCGCATTTCGGGTGGTGGTGGTGGTGGTGGTGGTGGCGGAGTCACCTAGTGCAG”, the binding signal was 13200 fluorescence intensity (a.u.). With “ACCACCACTCCATCTCCATTGCTGCAAACTACAAGCCGCCCGGAGTCACCTAGTGCAG” the binding signal was 10400 fluorescence intensity (a.u.). In the case of “GGACTCTCCTTTCCTTTTCTAATTTTGGATTTTATTTTATCGGAGTCACCTAGTGCAG”, the binding signal is reported as 8980 fluorescence intensity (a.u.). For “ACATAACACAGACTCACATTGCCTACGCCGAAATGTTACACGGAGTCACCTAGTGCAG”, the binding signal was 8560 fluorescence intensity (a.u.). For “GAAGGGTTTTTGGGTTTCGCCGCGTCACTAGGTTTTGTGGCGGAGTCACCTAGTGCAG”, the binding signal was 8520 fluorescence intensity (a.u.). For “GCTGGCATATGTATCCCTTACACATCATCACCCAGTGTTCCGGAGTCACCTAGTGCAG”, the binding signal was 10800 fluorescence intensity (a.u.). “GGCTGCCAACTTCCATTCTCCATCCACCCAATTAATACAGCGGAGTCACCTAGTGCAG” was tested, and the binding signal was 8770 fluorescence intensity (a.u.). For “ACTACGTTTAATACTTCAAATGTGTCTCTGTATATCCGATCGGAGTCACCTAGTGCAG”, the binding signal was 8760 fluorescence intensity (a.u.). For “CGTTCGCTCGCTCGCTCGCTCGCCTCCAGATCTGGAGGCGCGGAGTCACCTAGTGCAG”, the binding signal was 8750 fluorescence intensity (a.u.). With “CGTCCTCTTGTACCGGCAGTTCGTCTGCTGCTCCGCGAAGCGGAGTCACCTAGTGCAG” the binding signal was 8200 fluorescence intensity (a.u.). “GGGTGGTGCACTCCATTCCAGTCCACACTCCGCGCTCCCGCGGAGTCACCTAGTGCAG” was tested, and the binding signal was 8090 fluorescence intensity (a.u.). For “GTAGCAATAGATCCCGTTGTGTAGCTGCCCTCTATTGTTTCGGAGTCACCTAGTGCAG”, the binding signal was 9790 fluorescence intensity (a.u.). In the case of “TCTCTGTTCTTGCCTTCGCTAGCCAGATCTAACGCACTCACGGAGTCACCTAGTGCAG”, the binding signal is reported as 9510 fluorescence intensity (a.u.). In the case of “CACACACGCACCATTTACCCCATAATTGTTTTCTGAGTAACGGAGTCACCTAGTGCAG”, the binding signal is reported as 10300 fluorescence intensity (a.u.).
